Values from PubChem BioAssay AID1671195 (Yale University, 2021)
Test: 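Regulators of LDL receptor activity judged by labelled LDL uptake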 (primary screen). Cell system: human Huh7 hepatoma cells. Reagents: siRNA pool against human genes, 18 nM. Timing: about 2 to 2.5 days of knockdown, then 8 h LDL uptake. Challenge: DiI-labelled LDL at 30 µg/ml for 8 h, in lipoprotein-deficient serum medium. Detection: 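Fluorescent LDL signal imaged in cells, scaled to the plate median, robust z-score for each replicate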. Reading the numbers: robust z-score: higher = more LDL uptake after knockdown. Call rule: 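a gene counts as active if at least two replicate z-scores exceed ±2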.
In all, the deposit lists about 22,000 reagents; this is a part drawn at random. In the full data, about 1,510 (6.9%) got an active call. 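Active includes knockdowns raising or lowering LDL uptake; positive z-scores mean more uptake, negative mean less.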 No sequences are given here.

RCAN3 (regulator of calcineurin 3) | robust z-score, replicate 1: 3.35; robust z-score, replicate 2: 2.11; robust z-score, replicate 3: 2.89; Call: active
RAB15 (RAB15, member RAS oncogene family) | robust z-score, replicate 1: -1.08; robust z-score, replicate 2: -1.02; robust z-score, replicate 3: -0.81; Call: inactive
LOC441446 (retired record) | robust z-score, replicate 1: -0.22; robust z-score, replicate 2: -0.57; robust z-score, replicate 3: -0.649; Call: inactive
LOC390299 (retired record) | robust z-score, replicate 1: 0.371; robust z-score, replicate 2: 0.133; robust z-score, replicate 3: 0.248; Call: inactive
ABHD4 (abhydrolase domain containing 4, N-acyl phospholipase B) | robust z-score, replicate 1: 0.185; robust z-score, replicate 2: -0.208; robust z-score, replicate 3: -0.571; Call: inactive
PAX2 (paired box 2) | robust z-score, replicate 1: -0.16; robust z-score, replicate 2: -0.631; robust z-score, replicate 3: 0.719; Call: inactive
LOC653303 (proprotein convertase subtilisin/kexin type 7 pseudogene) | robust z-score, replicate 1: -0.832; robust z-score, replicate 2: -1.25; robust z-score, replicate 3: -1.2; Call: inactive
ATP6V0B (ATPase H+ transporting V0 subunit b) | robust z-score, replicate 1: -1.51; robust z-score, replicate 2: -1.38; robust z-score, replicate 3: -1.29; Call: inactive
CYCS (cytochrome c, somatic) | robust z-score, replicate 1: 0.107; robust z-score, replicate 2: -0.57; robust z-score, replicate 3: -0.0364; Call: inactive
WDCP (WD repeat and coiled coil containing) | robust z-score, replicate 1: 0.54; robust z-score, replicate 2: -0.494; robust z-score, replicate 3: 0.137; Call: inactive
RPS6 (ribosomal protein S6) | robust z-score, replicate 1: -1.43; robust z-score, replicate 2: -1.1; robust z-score, replicate 3: 0.199; Call: inactive
LOC400992 (retired record) | robust z-score, replicate 1: 2.35; robust z-score, replicate 2: 2.08; robust z-score, replicate 3: 2.19; Call: active

Hits (from the list above):
RCAN3 (regulator of calcineurin 3) | robust z-score, replicate 1: 3.35; robust z-score, replicate 2: 2.11; robust z-score, replicate 3: 2.89; Call: active
LOC400992 (retired record) | robust z-score, replicate 1: 2.35; robust z-score, replicate 2: 2.08; robust z-score, replicate 3: 2.19; Call: active
